Earlier results as cited in PMC7591906, “pHLIP ICG for delineation of tumors and blood flow during fluorescence-guided surgery” (Scientific Reports, 2020).
Peptide text beside a SMILES is read from it. * marks the point of attachment. X1 = CC1(C)C(/C=C/C=C/C=C/C=C2/N(CCCCCC(=O)NCCN3C(=O)CC(*)C3=O)c3ccc4ccccc4c3C2(C)C)=[N+](CCCCS(=O)(=O)[O-])c2ccc3ccccc3c21

System: malignant bladder and upper tract lesions
Conditions: cited from earlier work
[1] = ex vivo application to human bladders, NIR imaging vs pathology

CC(C)C[C@H](NC(=O)[C@H](Cc1ccc(O)cc1)NC(=O)[C@H](C)NC(=O)[C@H](CCCNC(=N)N)NC(=O)[C@H](Cc1c[nH]c2ccccc12)NC(=O)[C@@H]1CCCN1C(=O)[C@H](CC(N)=O)NC(=O)[C@H](CCC(N)=O)NC(=O)[C@H](CC(=O)O)NC(=O)[C@H](CC(=O)O)NC(=O)[C@H](CSC1CC(=O)N(CCNC(=O)CCCCCN2/C(=C/C=C/C=C/C=C/C3=[N+](CCCCS(=O)(=O)[O-])c4ccc5ccccc5c4C3(C)C)C(C)(C)c3c2ccc2ccccc32)C1=O)NC(=O)[C@H](C)N)C(=O)N[C@@H](CC(=O)O)C(=O)N[C@@H](CC(C)C)C(=O)N[C@@H](CC(C)C)C(=O)N[C@@H](Cc1ccccc1)C(=O)N1CCC[C@H]1C(=O)N[C@H](C(=O)N[C@@H](CC(=O)O)C(=O)N[C@H](C(=O)N[C@@H](CC(C)C)C(=O)N[C@@H](CC(C)C)C(=O)N[C@@H](CC(C)C)C(=O)N[C@@H](CC(=O)O)C(=O)N[C@@H](CC(C)C)C(=O)N[C@@H](CC(C)C)C(=O)N[C@@H](Cc1c[nH]c2ccccc12)C(=O)N[C@@H](C)C(=O)O)[C@@H](C)O)[C@@H](C)O (stereo partly shown) [pHLIP ICG] (H-AC(X1)DDQNPWRAYLDLLFPTDTLLLDLLWA-OH)
Sensitivity, malignant bladder lesions [1]: 97%
Specificity, malignant bladder lesions [1]: 100%
Sensitivity, malignant upper tract lesions (ex vivo, NIR imaging (78.9% white light imaging)): 100%
Specificity, malignant upper tract lesions (ex vivo, NIR imaging): 100%
